## Screening data, single-dose tests

Data taken from ChEMBL document CHEMBL3988442, “University of Dundee, Small-Polar-MMV Screening Library” (2021).

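Whole-cell growth test on Mycobacterium tuberculosis, read after 3 days in glucose-containing 7H9 medium; the read-out is not stated. Tested at 50 µM. Higher reads as more growth inhibition (inferred: compounds with an IC50 in retests scored well above the rest). About 69,000 compounds were tested under these conditions; 1.1% (about 760) showed 50% or more at least once.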

Values are the deposited “Percent Effect”, in %. The controls that fix the scale are not given in the record; negative values are as filed. The compounds are a random part of those screened. Two or more numbers in one place are separate tests of the same structure; such repeats can differ widely.

| compound | effect |
|---|---|
| `Cc1sc(-n2cnnn2)c(C(=O)NC(C)C)c1C` | -5.135 |
| `Cc1cccc2c1ccn2CCC(=O)Nc1c2c(nn1C)CSC2` | 9.964 & -0.7228 |
| `O=C(c1ccccn1)N1CCN(c2ccc(-n3cccc3)nn2)CC1` | 10.59 |
| `Cc1ccc2oc(C(=O)N3CCc4nnc(N(C)C)cc4C3)cc2n1` | 7.002 |
| `Cn1cc(CCNC(=O)NC2CCN(Cc3ccccn3)CC2)cn1` | -34.72 |
| `CCN(CC)C(=O)c1ccc(Cl)c(NC(=O)c2csnn2)c1` | 3.146 & 3.535 |
| `COc1ccc(C(=O)Nc2cnn(CC(=O)NC3CCCC3)c2)c(O)c1` | 8.983 |
| `CCNC(=O)C1(Cc2cc(-c3ccccc3)no2)CCCN(C(C)=O)C1` (centres unmarked) | -1.553 |
| `CCNC(=O)[C@@H]1C[C@@H](N)CN1Cc1ccc(-c2ccccc2C#N)o1` | 30.8 |
| `Cc1nn(C)c(C)c1C1CCCN1Cc1nc(-c2ccccn2)no1` (centres unmarked) | 27.88 & -2.082 |
| `CC(C)NS(=O)(=O)c1cc(C(=O)O)cc(-c2ccccc2CO)c1` | -0.4067 & 20.51 |
| `CC1CN(C)CCN1Cc1cccc(C(=O)NCc2ccco2)c1` (centres unmarked) | -33.2 |
| `COc1cc(OC)c(C2CC(=O)Oc3cc(C)[nH]c(=O)c32)c(OC)c1` (centres unmarked) | -6.921 |
| `COCCn1ccnc1CN(Cc1ccccn1)CC(C)C` | 9.437 |
| `COCCN1CCC(c2nc3c([nH]2)CCCNC3=O)CC1` | 2.31 |
| `COc1cc2c(cc1OC)CN(C(=O)NCC1CCCO1)CC2` (centres unmarked) | -11.24 |
| `O=C(CSc1ccc2c(c1)OCCO2)NS(=O)(=O)c1ccccc1` | 8.736 |
| `O=C(NCC(F)(F)C(F)F)c1cccnc1` | -17.14 |
| `O=C(O)C(F)(F)F.O=C1CC2(CCN(CC3CCOC3)CC2)c2ccccc2N1CC1CC1` (centres unmarked) | -15.15 |
| `COc1ccc(CN(C)CC2CCCN2c2cccnn2)cc1F` (centres unmarked) | -56.78 |
| `O=C(O)C(F)(F)F.O=C(O)C(F)(F)F.[H][C@@]12CN(Cc3cccs3)CCC[C@]1(C(=O)OCC)CN(CCOC)C2` | 17.54 |
| `Cc1cnn(CC(C)NCc2ccccc2OCc2cccnc2)c1` (centres unmarked) | -5.156 |
| `O=C(O)C(F)(F)F.[H][C@@]12CN(CC)C[C@]1(C(=O)N(C)C)CCC21CCN(S(C)(=O)=O)CC1` | -24.2 |
| `O=C(Nc1cc(-c2ccncc2)no1)C1CC1` | 11.26 |
| `COc1cccc(O[C@H]2CCN(c3nc(C)cc(C)n3)CC[C@@H]2O)c1` | -10.78 |
| `CCc1nc(CSC2CCCN(c3cnn(C)c3)C2=O)cs1` (centres unmarked) | 26.92 |
| `CN(C)Cc1cccc(-c2cccnc2C(=O)NCc2cn(C)cn2)c1` | -3.03 |
| `Cc1nc2cc(=O)[nH]n2c(C)c1CC(=O)Nc1cn[nH]c1` | -17.74 & 12.89 |
| `CNC(=O)c1ccc(CNCc2ccc(SC)c(OC)c2)cc1` | -48.67 |
| `O=C(c1ccc[nH]1)N1CCc2ncc(Cn3cccn3)n2CC1` | -24.75 |
| `O=C(CN1CCCC(c2ccn[nH]2)C1)Nc1nc2c(s1)CCC2` (centres unmarked) | 37.19 |
| `CS(=O)(=O)N1CCCCC1c1ccc(Nc2cnccn2)nc1` (centres unmarked) | -6.179 |
| `CCn1c(O)c(C(C)=O)c2cc(C)ccc21` | 27.58 & 2.662 |
| `O=C(O)C(F)(F)F.O=C(O)C(F)(F)F.c1ccc(CN2CCCn3nnc(COc4ccccn4)c3C2)nc1` | 2.035 & -6.233 |
| `CN(C(=O)c1cc(F)ccc1F)[C@@H]1CC[C@@H](O)[C@@H]1O` | 10.31 |
| `OCCOc1ccc(NCc2cc(F)cc3cccnc23)cn1` | 24.74 |
| `CC(NC(=O)c1ccc(C(N)=O)cc1)c1cccc(N2CCOC2=O)c1` (centres unmarked) | -6.429 & -17.29 |
| `Cc1nsc(N2CCCN(C(=O)c3ccc4[nH]ccc4c3)CC2)n1` | 18.45 |
| `Cc1sc2nc(C(F)(F)F)nc(N3CCC(NS(C)(=O)=O)CC3)c2c1C` | -0.3468 |
| `CC(=O)Nc1ccc(Oc2ccc(CN3CCCC3)cc2F)cc1` | 41.92 |
| `NC(=O)Cn1cc(NC(=O)N2CCC(c3ccccc3)CC2)cn1` | 32.03 |
| `CS(=O)(=O)N1CC[C@]2(C[C@H](Oc3ccccn3)CO2)C1.O=C(O)C(F)(F)F` | -1.845 & 3.64 |
| `O=C(NCC1(c2ccc(F)cc2)CCCC1)N1CCOC(CO)C1` (centres unmarked) | 14.46 |
| `CCc1cc(NCCCN(C)C2CCCC2)ncn1` | -8.367 |
| `Cc1noc(C)c1CC(=O)N1CCCC(Cn2ccnc2C)C1` (centres unmarked) | 9.903 |
| `CCN(CC)CCCNCc1cc2cccc(C)c2[nH]c1=O` | -2.89 |
| `CC(C(=O)NCc1ccc(-n2cncn2)nc1)n1ccnc1` (centres unmarked) | 5.744 |
| `Cc1ccc(-c2noc(C3CCN3C(=O)c3c(C)noc3C)n2)s1` (centres unmarked) | 14.66 |
| `O=C(O)C(F)(F)F.[H][C@]12CCN(C(=O)NCC(C)C)CC[C@@]1([H])S(=O)(=O)N(Cc1cccnc1)C2` | -37.1 |
| `Cc1ccc2c(n1)N(C)CCN(Cc1cnn(C)c1)C2` | 3.236 |
| `O=C(c1cnc(Nc2ccccc2)nc1)N1CCCC2(CCNC2)C1` (centres unmarked) | -22.53 |
| `CCCN(CCC)Cc1nnsc1Cl` | 20.19 |
| `COc1ccc(CNc2c(C)nn(C(C)C)c2C)cc1` | -29.79 |
| `Cn1cc(C(=O)N(Cc2ccco2)Cc2cccs2)ccc1=O` | -33.73 |
| `Cc1cc(C)nc(CN(C)c2nc(C3CCCC3)nc3c2cnn3C)c1` | 31.27 |
| `CC(=O)N1N=C(COc2ccc3c(c2)OCO3)OC1c1cccc(Cl)c1` (centres unmarked) | -14.58 |
| `CC(C)C[C@H](N)COc1cccc(F)c1Oc1cccc(Cl)c1` | 107.5 |
| `c1cc(-c2cncc(C3CCNCC3)n2)n[nH]1` | -3.263 |
| `Cc1ccsc1CCNC(=O)C1(Oc2cccnc2C)CCNCC1` | 8.144 & 8.666 |
| `COC(=O)Cc1cn2cc(C(F)(F)F)ccc2n1` | -42.28 & -4.1 |
| `O=C(CNC(=O)C1CC1)NCC1CCCC1` | 5.125 & 26.13 |
| `O=C(O)C(F)(F)F.O=C(O)C(F)(F)F.[H][C@]12C[C@@H](CN3CCCC3)N(C)[C@@]1([H])CCN(C(=O)c1occc1C)C2` | -0.7733 |
| `CN1C(=O)C2(CC(=O)Nc3c2cnn3C(C)(C)C)c2c(Cl)cccc21` (centres unmarked) | 5.355 |